Assay results as given in paper PMC8834003.

Target: T1, mouse sperm-associated antigen 6-like (SPAG6L), the evolved gene on chromosome 16 (mouse) (UniProt Q9JLI7)
T1 sequence: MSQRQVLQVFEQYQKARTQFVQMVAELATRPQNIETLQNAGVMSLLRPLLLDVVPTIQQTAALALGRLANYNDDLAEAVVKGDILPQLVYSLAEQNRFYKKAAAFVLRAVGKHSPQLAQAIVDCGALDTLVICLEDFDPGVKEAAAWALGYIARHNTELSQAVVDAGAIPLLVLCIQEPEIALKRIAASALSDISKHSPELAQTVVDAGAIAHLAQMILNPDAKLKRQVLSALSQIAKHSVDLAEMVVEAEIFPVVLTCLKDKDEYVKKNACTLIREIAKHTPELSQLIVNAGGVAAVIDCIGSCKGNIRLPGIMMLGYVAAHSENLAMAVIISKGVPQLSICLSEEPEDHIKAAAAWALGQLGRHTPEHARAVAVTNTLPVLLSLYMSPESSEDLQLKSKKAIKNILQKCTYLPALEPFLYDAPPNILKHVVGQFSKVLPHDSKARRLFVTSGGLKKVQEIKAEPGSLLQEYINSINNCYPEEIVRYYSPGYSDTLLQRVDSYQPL
Assay: two-hybrid; direct yeast two-hybrid assay; indicated pGBK-T7 and pGAD-T7 plasmids transformed into AH109 yeast; growth on non-selection medium (SD-2) and selection medium (SD-3)

TAC1
binding: binds

No constants are given. Whether binding was seen depends on the method and setting. Binding calls can cover weak binding; strength is not graded here.
